Assay: 5 cm^2 active area flow battery cell test
Details: for cell potential at open circuit: 50% SOC

Molecule: Oc1cccc2c1[O][Ti-2]13([O]c4ccccc4[O]1)([O]c1ccccc1[O]3)[O]2.[K+].[Na+] [Ti(catecholate)2(pyrogallate)^2−/3−, sodium potassium titanium(IV) biscatecholate monopyrogallate]
- energy density of flow battery active materials (Example 4, […], Fe(CN)6 positive electrolyte): 32.79 Wh/L

Molecule: CC(O)C(=O)[O-].CC(O)C(=O)[O-].O=C([O-])c1ccccc1O.[Ti+3] [Ti^IV/III(lactate)2(salicylate), titanium bis-lactate mono-salicylate]
- cell potential at open circuit (Example 5, 1 M, Fe(CN)6 positive electrolyte, carbon paper, NAFION 25 μm): 1.60 V

Molecule: Disodium titanium(IV) triscatecholate [Ti(catecholate)^2−/3−]
- cell potential at open circuit (Example 2, 0.5 M, pH 11, Fe^3+/2+ (CN)6^3−/4− positive electrolyte, carbon felt, NAFION 50 μm): 1.63 V

Reference: US10014546B2 (priority 2012, dated 2018)
